{"source": "PubChem BioAssay AID1259254 (NCATS, 2017)", "aim": "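Finding genes that stop cells copying their DNA twice in one cycle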 (primary screen)", "cell system": "human HCT116 colorectal cancer cells", "knock-down reagent": "single siRNA against human genes", "time to read-out": "3 days", "read-out": "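Nuclei stained with Hoechst and imaged; cell-cycle phase assigned by DNA content; G2 share scaled per plate, non-targeting siRNA 0%, GMNN siRNA 100%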", "reading the numbers": "G2 robust z-score and G2 cells, % of GMNN control: higher = more G2 cells, more excess DNA replication", "hit rule": "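Active siRNAs have a G2 robust z of 5 or more median absolute deviations over the median, which in these data means about 38% or higher of GMNN control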", "note": "In all, the deposit lists about 59,000 reagents; below is a part drawn at random. In the full data, about 1,550 (2.6%) were called active. 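G2 share is only a proxy for re-replication; each gene was hit by three separate siRNAs, and active genes were retested.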 Entries without a mark were called inactive. The numbers tell different reagents against one gene apart. Further read-outs or replicates are left out here. Not stated in the record: the amount of reagent."}
{"Target gene":"SCG2","siRNA no.":1,"G2 robust z-score":1.02,"G2 cells, % of GMNN control":10.1}
{"Target gene":"SCG2","siRNA no.":2,"G2 robust z-score":0.13,"G2 cells, % of GMNN control":3.88}
{"Target gene":"SCG2","siRNA no.":3,"G2 robust z-score":-1.14,"G2 cells, % of GMNN control":-5.07}
{"Target gene":"INA","siRNA no.":1,"G2 robust z-score":0.959,"G2 cells, % of GMNN control":9.71}
{"Target gene":"INA","siRNA no.":2,"G2 robust z-score":-1.04,"G2 cells, % of GMNN control":-4.37}
{"Target gene":"INA","siRNA no.":3,"G2 robust z-score":-0.574,"G2 cells, % of GMNN control":-1.07}
{"Target gene":"C1QA","siRNA no.":1,"G2 robust z-score":-0.242,"G2 cells, % of GMNN control":1.26}
{"Target gene":"C1QA","siRNA no.":2,"G2 robust z-score":-0.12,"G2 cells, % of GMNN control":2.12}
{"Target gene":"C1QA","siRNA no.":3,"G2 robust z-score":3.7,"G2 cells, % of GMNN control":29}
{"Target gene":"NRG3","siRNA no.":1,"G2 robust z-score":-0.588,"G2 cells, % of GMNN control":-1.17}
{"Target gene":"NRG3","siRNA no.":2,"G2 robust z-score":0.377,"G2 cells, % of GMNN control":5.62}
{"Target gene":"NRG3","siRNA no.":3,"G2 robust z-score":-0.616,"G2 cells, % of GMNN control":-1.37}
{"Target gene":"LOC728416","siRNA no.":1,"G2 robust z-score":-0.822,"G2 cells, % of GMNN control":-2.81}
{"Target gene":"LOC728416","siRNA no.":2,"G2 robust z-score":-0.814,"G2 cells, % of GMNN control":-2.76}
{"Target gene":"LOC728416","siRNA no.":3,"G2 robust z-score":-0.169,"G2 cells, % of GMNN control":1.78}
{"Target gene":"TMEM263","siRNA no.":1,"G2 robust z-score":2.18,"G2 cells, % of GMNN control":18.3}
{"Target gene":"TMEM263","siRNA no.":2,"G2 robust z-score":-0.617,"G2 cells, % of GMNN control":-1.37}
{"Target gene":"TMEM263","siRNA no.":3,"G2 robust z-score":-0.216,"G2 cells, % of GMNN control":1.45}

Quoted from the entries so far (2 entries):
{"Target gene":"SCG2","siRNA no.":1,"G2 robust z-score":1.02,"G2 cells, % of GMNN control":10.1}
{"Target gene":"SCG2","siRNA no.":2,"G2 robust z-score":0.13,"G2 cells, % of GMNN control":3.88}
